The record followed here is PubChem BioAssay AID493014 (National Center for Advancing Translational Sciences (NCATS), 2011).

The other results are listed elsewhere or left out. Shown are side measurements of this screen, not its main read-out; they come without a call. Compounds called inactive in the main read-out are mostly missing here. Potencies come from curve fits of mixed quality, noted in brackets.

This assay can be described thus: qHTS Assay to Find Inhibitors of Chronic Active B-Cell Receptor Signaling. As to conditions: ABC-DLBCL IkBa-CBG/CBR reporter, luminescence ratio (green luciferase fused to IkBa over red control in TMD8 lymphoma cells), 4 h. An outline of the steps: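 Cell line TMD8 (human ABC DLBCL), stably expressing tet-inducible CBG68-IkBa fusion and CBR; IMDM/0.5% FBS; cpd up to 46 uM; dox induction, 4 h, 37C/5% CO2; dual luminescence; green/red ratio; MG132 control.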
For orientation: In qHTS, concentration-response curves come from the screen itself.

The mark [1] stands for this setting: measured here: CBR red luminescence, cell number.

Regarding `CCOC(=O)c1nc2nc(-c3cccs3)cc(C(F)(F)F)n2n1`, under setting [1], the AC50 (in general, the concentration giving half of the maximal activity seen) was 11.6 µM [rising, partial curve, poor fit]. Still for that read-out and setting: for `Cc1nc(Nc2ccc(S(N)(=O)=O)cc2)sc1-c1ccccc1` the value was 35.5 µM [rising, single point]; for `CCC(=O)Nc1ccc(C(=O)Nc2cc(C)on2)cc1`, 0.82 µM [falling, full curve, poor fit]; for `COC(=O)COc1ccc2c(-c3cccc([N+](=O)[O-])c3)cc(=O)oc2c1`, 15.8 µM [falling, partial curve]. On the same count and under the same terms, for `Cc1ccc(-c2nnc3n2N=C(c2ccccc2)CS3)cc1` the value was 1.84 µM [falling, partial curve, poor fit]. On the same count and under the same terms, under `Cc1ccc(O)c(-c2[nH]ncc2C(=O)c2ccc(Cl)cc2)c1` stands 20 µM [falling, single point]; under `O=C(Nc1cc(Cl)cc(Cl)c1)C1CCCC1`, 0.112 µM [rising, full curve, poor fit]; under `CCOC(=O)COc1ccc(C(=O)c2ccccc2)c(O)c1`, 0.112 µM [rising, full curve, poor fit]. Take `O=C(Nc1ccc([N+](=O)[O-])cc1)C1COc2ccccc2O1` (stereo not drawn): the concentration at half-maximal activity (AC50) under setting [1] was 3.55 µM [rising, full curve]. Turning to `C/C(=N\NC(=O)c1cccc(Br)c1)c1ccccn1`, the AC50 under setting [1] was 5.62 µM [rising, single point]. Still for that read-out and setting: under `CC(CNC(=O)c1ccc(N)cc1)NC(=O)c1ccc(N)cc1` (stereo not drawn) stands 28.2 µM [falling, single point]; under `CC(C)N(C(=O)[C@H]1CC(CC(=O)NCCCN(C)C)C(=O)N2CCc3c([nH]c4ccccc34)[C@]12C)C(C)C` (stereo partly drawn), 1.84 µM [rising, partial curve, poor fit]; under `O=C(O)C1CCCCC1C(=O)NCCCCc1ccccc1` (stereo not drawn), 11.2 µM [rising, single point]. Still for that read-out and setting: under `COc1cccc(OCc2nn3c(=O)c(-c4ccccc4)nnc3s2)c1` stands 0.562 µM [rising, full curve, poor fit]. Same read-out and setting: for `COc1cccc(CN(C)C(=O)COc2ccc(C(=O)c3ccc(Cl)cc3)cc2)c1OC` the value was 35.5 µM [falling, single point]. Consider `CCCCCCSc1nc(O)c(C2OC(=O)c3c2ccc(OC)c3OC)c(=O)n1CC` (stereo not drawn), for which the AC50 under setting [1] was 1.16 µM [falling, full curve, poor fit]. As for `O=C(CSc1ccc2ccccc2n1)N/N=C/c1ccccc1O`, the half-maximal activity concentration (AC50) under setting [1] is 1.58 µM [falling, full curve]. Still for that read-out and setting: under `Cc1nc2ncnn2c(C)c1Cc1ccccc1Cl` stands 1.3 µM [falling, partial curve, poor fit]; under `CC(=O)c1sc(NC(=O)c2c(F)cccc2F)nc1-c1ccccc1`, 1.12 µM [falling, partial curve, poor fit]. `COc1ccc(NC(=O)c2ccc(S(=O)(=O)N3CCOCC3)cc2)c(OC)c1`: the AC50 under setting [1] was 3.26 µM [rising, single point]. For `O=C(/C=C/c1ccccc1)Nc1nc(-c2ccncc2)cs1`, the AC50 under setting [1] is 0.562 µM [rising, full curve, poor fit]. Take `CCOc1cc(C(=O)Nc2ccc(F)cc2)cc(Br)c1OC`: the concentration at half-maximal activity (AC50) under setting [1] is 32.6 µM [falling, single point]. In the case of `Cc1ccccc1CN(c1ccc(C(=O)N2CCc3ccccc3C2)cc1)S(C)(=O)=O`, the AC50 under setting [1] was 6.31 µM [rising, single point]. Still for that read-out and setting: for `Cc1cccc(C)c1Nc1c(-c2ccccc2O)nc2ncccn12` the value was 0.794 µM [falling, full curve, poor fit].

Turning to `Cn1c(=O)c2cc(S(=O)(=O)Nc3ccc4c(c3)OCO4)ccc2n(C)c1=O`, the AC50 under setting [1] is 20.6 µM [falling, single point]. Regarding `Brc1ccc(-c2csc(N3CCOCC3)n2)cc1`, the half-maximal activity concentration (AC50) under setting [1] is 12.6 µM [rising, partial curve, poor fit]. As to `CC(=O)NNc1nc(-c2ccccc2)cs1`, the concentration at half-maximal activity (AC50) under setting [1] is 17.8 µM [falling, single point]. For the compound `Cc1oc2c(c(C)cc3oc(=O)c(CC(=O)NCC(=O)NCC(=O)NCC(C)O)c(C)c32)c1C` (stereo not drawn), the concentration at half-maximal activity (AC50) under setting [1] was 3.98 µM [rising, partial curve, poor fit]. `Cc1ccc(C(=O)Nc2ccc(F)cc2)cc1S(=O)(=O)N1CCOCC1`: the AC50 under setting [1] is 3.98 µM [rising, partial curve, poor fit]. Still for that read-out and setting: under `COc1ccc2oc(=O)c(C(=O)N3CCCc4ccccc43)cc2c1` stands 32.6 µM [rising, single point]. `NNC(=O)c1[nH]c2ccc(Br)cc2c1-c1ccccc1`: the AC50 by setting is: under setting [1], 6.31 µM [rising, full curve]; (measured here: IkBa-CBG green luminescence) 3.98 µM [falling, full curve]. For the compound `COc1ccc(CNc2cc(C)ccn2)c(O)c1`, the AC50 under setting [1] is 11.2 µM [rising, partial curve]. On to `O=C(N/C(=C/c1ccccc1F)C(=O)N1CCCCC1)c1ccccc1`, for which the AC50 under setting [1] was 35.5 µM [rising, single point]. Same read-out and setting: under `O=C(NNC(=O)c1ccc[nH]1)c1cc(Cl)cc(Cl)c1` stands 22.4 µM [falling, single point]; under `O=C(c1ccc(F)c(S(=O)(=O)N2CCOCC2)c1)N1CCN(c2ncccn2)CC1`, 2.91 µM [rising, partial curve, poor fit]; under `COC(=O)N/N=C/c1cc(N=Nc2ccccc2Cl)ccc1O`, 1.12 µM [rising, full curve]. On the same count and under the same terms, for `Cc1ccsc1C(=O)N1CCN(C(=O)c2ccco2)CC1` the value was 29.1 µM [rising, single point]. In the case of `O=C(OCC(=O)c1ccc[nH]1)c1ccc(S(=O)(=O)N2CCCCC2)cc1`, the AC50 under setting [1] is 0.461 µM [falling, full curve, poor fit].

Turning to `COc1ccc(CN(CCC#N)C(=S)NC(=O)c2ccccc2)cc1`, the concentration at half-maximal activity (AC50) under setting [1] is 3.16 µM [rising, single point]. On to `COc1ccc(Nc2c3c(nc4ccccc24)CCC3)cc1`, for which the AC50 under setting [1] was 20 µM [falling, partial curve, poor fit]. Still for that read-out and setting: for `C/C(=N\Nc1ccc(Cl)c(C(=O)O)c1)c1cc2ccccc2o1` the value was 35.5 µM [falling, single point].

For the compound `CO/N=C/c1cc([N+](=O)[O-])ccc1Sc1ccc(C)cc1`, the concentration at half-maximal activity (AC50) under setting [1] is 0.461 µM [rising, full curve].
